No constants are given. Whether binding was seen depends on the method and setting.
Target: T1, recombinant B. bacilliformis GroES (B. bacilliformis) (UniProt A1UTX8)
T1 sequence: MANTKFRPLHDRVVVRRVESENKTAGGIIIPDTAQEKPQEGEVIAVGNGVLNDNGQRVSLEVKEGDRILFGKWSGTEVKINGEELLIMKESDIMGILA
Assay: far-Western

By UniProt entry, the sequences of proteins in these tests, tags left out. Residues count along the entry.
UniProt P08603, residues 19-1231: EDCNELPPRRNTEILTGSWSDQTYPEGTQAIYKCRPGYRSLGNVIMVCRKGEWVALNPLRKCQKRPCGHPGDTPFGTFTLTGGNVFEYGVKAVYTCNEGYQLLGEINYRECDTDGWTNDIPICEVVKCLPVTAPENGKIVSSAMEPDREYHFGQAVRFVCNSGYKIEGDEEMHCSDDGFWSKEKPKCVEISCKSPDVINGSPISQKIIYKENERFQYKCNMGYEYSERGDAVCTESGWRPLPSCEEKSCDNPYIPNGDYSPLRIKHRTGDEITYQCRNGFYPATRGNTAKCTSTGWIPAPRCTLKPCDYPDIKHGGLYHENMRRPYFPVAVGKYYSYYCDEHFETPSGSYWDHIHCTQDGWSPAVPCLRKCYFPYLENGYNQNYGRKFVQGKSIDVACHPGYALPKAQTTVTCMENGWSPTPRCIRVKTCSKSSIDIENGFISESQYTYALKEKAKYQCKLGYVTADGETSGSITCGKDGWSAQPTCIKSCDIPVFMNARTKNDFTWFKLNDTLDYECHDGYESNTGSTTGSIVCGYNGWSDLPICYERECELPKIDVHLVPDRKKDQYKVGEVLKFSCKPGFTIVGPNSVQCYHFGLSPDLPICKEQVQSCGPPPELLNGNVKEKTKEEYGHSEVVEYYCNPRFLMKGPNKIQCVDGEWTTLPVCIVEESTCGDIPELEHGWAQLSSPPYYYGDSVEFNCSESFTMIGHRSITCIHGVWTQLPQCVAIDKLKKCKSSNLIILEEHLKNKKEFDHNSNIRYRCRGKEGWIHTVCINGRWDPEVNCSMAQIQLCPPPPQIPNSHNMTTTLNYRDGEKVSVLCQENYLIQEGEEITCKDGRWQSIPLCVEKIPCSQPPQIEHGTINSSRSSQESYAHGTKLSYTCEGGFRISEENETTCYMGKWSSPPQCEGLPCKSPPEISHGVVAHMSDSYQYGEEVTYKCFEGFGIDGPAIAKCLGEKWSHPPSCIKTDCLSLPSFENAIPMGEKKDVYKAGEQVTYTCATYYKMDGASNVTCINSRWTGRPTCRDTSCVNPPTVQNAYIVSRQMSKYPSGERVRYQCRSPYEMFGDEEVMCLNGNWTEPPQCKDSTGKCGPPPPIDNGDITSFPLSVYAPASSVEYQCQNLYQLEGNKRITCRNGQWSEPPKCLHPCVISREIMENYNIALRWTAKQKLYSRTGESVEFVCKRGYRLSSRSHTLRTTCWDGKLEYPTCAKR

binding: no binding (tested: 5 ng/μl)
Substance: human complement factor H (from UniProt P08603 19-1231)
